From PMC9805134
Results are given in words; binding and its absence hold for the method and conditions named. In cells and extracts the contact can be indirect. A result given as binding can be weak or reduced; the word gives no strength.

The chains behind the UniProt entries cited, without tags or fusion partners. Where a name states a change or a piece, a line headed by the entry shows the natural chain unless it says otherwise.
UniProt O43791: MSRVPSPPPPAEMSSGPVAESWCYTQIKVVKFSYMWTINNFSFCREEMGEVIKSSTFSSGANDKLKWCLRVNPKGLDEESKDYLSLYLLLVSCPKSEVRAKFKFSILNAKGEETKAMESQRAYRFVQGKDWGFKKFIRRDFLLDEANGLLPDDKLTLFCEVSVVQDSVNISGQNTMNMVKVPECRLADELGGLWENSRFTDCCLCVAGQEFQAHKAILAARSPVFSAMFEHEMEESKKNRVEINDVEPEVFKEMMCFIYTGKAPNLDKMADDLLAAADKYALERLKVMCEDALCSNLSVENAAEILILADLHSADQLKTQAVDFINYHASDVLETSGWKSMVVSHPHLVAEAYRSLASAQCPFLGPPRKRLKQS
UniProt P15056: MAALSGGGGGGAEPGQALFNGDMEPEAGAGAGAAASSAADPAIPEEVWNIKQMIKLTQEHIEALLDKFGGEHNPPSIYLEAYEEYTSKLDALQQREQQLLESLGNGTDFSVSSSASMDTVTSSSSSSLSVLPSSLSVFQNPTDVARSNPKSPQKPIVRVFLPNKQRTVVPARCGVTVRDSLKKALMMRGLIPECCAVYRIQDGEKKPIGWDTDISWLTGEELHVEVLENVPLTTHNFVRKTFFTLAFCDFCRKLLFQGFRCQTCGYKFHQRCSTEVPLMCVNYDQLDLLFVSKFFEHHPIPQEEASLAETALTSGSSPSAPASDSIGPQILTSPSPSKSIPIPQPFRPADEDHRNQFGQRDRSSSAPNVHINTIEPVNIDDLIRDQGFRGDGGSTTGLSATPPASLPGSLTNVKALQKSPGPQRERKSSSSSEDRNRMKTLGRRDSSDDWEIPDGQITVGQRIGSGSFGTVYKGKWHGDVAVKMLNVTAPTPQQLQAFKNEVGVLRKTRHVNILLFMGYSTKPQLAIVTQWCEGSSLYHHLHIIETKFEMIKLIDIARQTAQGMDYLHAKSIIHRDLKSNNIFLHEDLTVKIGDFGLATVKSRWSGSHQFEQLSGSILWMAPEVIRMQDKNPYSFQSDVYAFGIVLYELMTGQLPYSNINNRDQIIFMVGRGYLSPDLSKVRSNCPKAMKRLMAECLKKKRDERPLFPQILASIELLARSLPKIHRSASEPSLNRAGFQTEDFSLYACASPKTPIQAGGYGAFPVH

Target: SPOP-ΔNLS (UniProt O43791)
Assay: co-IP; 293T cells transfected with the indicated plasmids; co-IP with anti-FLAG antibody from whole-cell lysates, Western blot

binding: binds
Substance: BRAF, wild type, ectopically expressed (from UniProt P15056 1-766)
